The values that follow come from PubChem BioAssay AID1487 (National Center for Advancing Translational Sciences (NCATS), 2009).

The list shows a part of the results. Shown are side measurements of this screen, not its main read-out; they come without a call. Compounds called inactive in the main read-out are mostly missing here. Potencies come from curve fits of mixed quality, noted in brackets.

For orientation: AC50 means the concentration giving half of the maximal activity seen.

The assay can be described thus: qHTS Assay for Modulators of Lamin A Splicing. To be noted: HeLa LMNA splicing GFP/RFP minigene ratio, 48 h. The essentials:
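Read-out is the ratio of GFP to DsRed2 object intensity, acquired by 488 nm laser-scanning cytometry on HeLa lamin A-EGFP minigene reporter cells. Compound incubation 48 hrs at 37 °C in Opti-MEM with 2% FBS; DMSO 0.5% final.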
Background: Quantitative high-throughput screening tests each substance at several concentrations.

The mark [1] stands for this setting: measured here: GFP splicing reporter channel.
The mark [2] stands for this setting: measured here: RFP viability control channel.

Consider `CC1=C(C(=O)OCCNC(=O)c2ccccc2O)C(c2ccccc2[N+](=O)[O-])C(C(=O)OCC2CCCO2)=C(C)N1` (stereo not drawn), for which the AC50 under setting [1] was 17.8 µM [rising, partial curve] and the concentration at half-maximal activity (AC50) under setting [2] was 12.6 µM [rising, partial curve].

`Cc1cccc(C(=O)NCN2CCN(c3ccccc3C#N)CC2)c1`: the concentration at half-maximal activity (AC50) reads like this: under setting [1], 35.5 µM [falling, single point]; under setting [2], 7.94 µM [rising, partial curve, poor fit].

Take `COC(=O)c1cc(COc2ccc3oc(C)c(C(=O)OC)c3c2)c(C)o1`: the AC50 under setting [2] was 35.5 µM [rising, single point].

On to `COc1ccc(Cl)cc1N/C(N)=N/c1nc(C)cc(C)n1`, for which the AC50 under setting [1] is 15.8 µM [falling, partial curve] and the concentration at half-maximal activity (AC50) under setting [2] is 17.8 µM [falling, partial curve, poor fit].

`CCOc1cc(/C=N/Nc2nc3ccccc3[nH]2)cc(Br)c1OCC(=O)N(C)C`: the AC50 under setting [1] was 2.82 µM [falling, single point].

Regarding `COc1ccc(NC(=O)CN(c2cc(C)cc(C)c2)S(=O)(=O)c2c(C)noc2C)cc1OC`, the AC50 under setting [2] is 17.8 µM [rising, partial curve].

Turning to `CCOC(=O)C1(CCc2ccccc2)CCN(Cc2ccc(O)cc2)CC1`, the AC50 was 0.282 µM [falling, partial curve] under setting [1] and 0.00447 µM [falling, full curve, poor fit] under setting [2].

For `Cc1onc(-c2ccccc2Cl)c1C(=O)N1CCN(C/C=C/c2ccccc2)CC1`, the half-maximal activity concentration (AC50) under setting [2] was 20 µM [rising, partial curve].

In the case of `Cc1ccc(-n2c(C)cc(/C=N/NC(=O)c3ccc(CN4CCOCC4)cc3)c2C)cc1`, the AC50 under setting [1] was 12.6 µM [rising, partial curve] and the AC50 under setting [2] is 17.8 µM [rising, partial curve].

As to `CCOc1ccc(OCCSc2nnnn2-c2ccccc2)cc1`, the half-maximal activity concentration (AC50) under setting [2] was 35.5 µM [rising, single point].

As to `OCCC1CN(Cc2cnn(-c3ccccc3Cl)c2)CCN1Cc1ccsc1` (stereo not drawn), the AC50 under setting [2] was 7.94 µM [falling, partial curve, poor fit].

For `COC(=O)c1ccccc1Sc1c(/C=N/OCc2ccc(Cl)cc2)c(C(F)(F)F)nn1C`, the AC50 under setting [2] was 11.2 µM [rising, partial curve].

Consider `O=S(=O)(c1ccccc1)c1nc(NC2CC2)sc1Cl`, for which, under setting [2], the AC50 is 35.5 µM [falling, single point].

Take `CCCn1c(=O)c2[nH]c(-c3ccc(OCC(=O)Nc4ccc(C#N)cc4)cc3)nc2n(CCC)c1=O`: the half-maximal activity concentration (AC50) is, setting by setting: under setting [1], 1.78 µM [falling, partial curve, poor fit]; under setting [2], 2.24 µM [falling, partial curve, poor fit].

For the molecule `CCN(c1ccccc1)S(=O)(=O)c1ccc(C(=O)Nc2nnc(COC)o2)cc1`, the AC50 runs as follows: under setting [1], 8.91 µM [rising, partial curve, poor fit]; under setting [2], 11.2 µM [rising, partial curve].

As to `COc1ccc(OC)c(/C=N/c2c(-c3ccc(O)c(OC)c3)nc3ccccn23)c1`, the AC50 under setting [1] was 0.00501 µM [falling, full curve, poor fit].

Take `COc1ccc2c(c1)CC/C(=C\C=C\c1ccccc1OC)C2=O`: under setting [2], the AC50 was 31.6 µM [rising, single point].

Take `CCCCOCC1CC(CC#CCN2CCCCC2)C(=O)O1` (stereo not drawn): the AC50 runs as follows: under setting [1], 0.891 µM [falling, full curve]; under setting [2], 0.316 µM [falling, full curve, poor fit].

Regarding `CC1(C)CC(C)(c2ccc(O)cc2O)N(c2cccc(Cl)c2)C(=S)N1` (stereo not drawn), the AC50 under setting [2] was 11.2 µM [rising, single point].

Regarding `Cc1ccc(S(=O)(=O)NCC(=O)N(c2ccccc2)C(C(=O)NCc2ccccc2)c2ccco2)cc1` (stereo not drawn), the AC50 is, setting by setting: under setting [1], 11.2 µM [rising, partial curve, poor fit]; under setting [2], 14.1 µM [rising, partial curve].

`CCNc1nc(NCc2ccccc2)nc(SCC(=O)Nc2ccccc2)n1`: the half-maximal activity concentration (AC50) under setting [2] is 35.5 µM [rising, partial curve].

In the case of `COc1ccc(/C=N/NC(=O)c2ccc(NC(=O)c3cccc([N+](=O)[O-])c3)cc2)c(OC)c1`, under setting [1], the AC50 was 0.316 µM [falling, full curve, poor fit].

For `COc1ccc(/C=N/Nc2ncnc3scc(-c4ccccc4)c23)cc1OC`, under setting [2], the AC50 was 11.2 µM [rising, partial curve].

As for `O=[N+]([O-])c1ccc(Sc2n[nH]c(-c3ccccc3)n2)nc1`, the AC50 was 7.08 µM [rising, full curve, poor fit] under setting [1] and 10 µM [rising, partial curve] under setting [2].

Take `CC(C)(C)OC(=O)C(C(=O)OC(C)(C)C)c1ccc(Cl)nn1`: the half-maximal activity concentration (AC50) under setting [2] is 0.794 µM [falling, full curve, poor fit].

Consider `N#CC1(c2ccc(NC(=O)c3ccccc3F)cc2)CCCC1`, for which, under setting [2], the AC50 is 31.6 µM [rising, single point].

For `Cc1cc(=O)oc2cc(OCC(O)CN3CCN(c4ccc(F)cc4)CC3)ccc12` (stereo not drawn), under setting [2], the AC50 is 12.6 µM [rising, single point].

On to `COc1ccc(CNc2ccnc(-c3cccc(NS(C)(=O)=O)c3)n2)c(OC)c1`, for which the AC50 under setting [1] is 12.6 µM [falling, partial curve].

In the case of `COC(=O)C1=C(C)NC(C)=C(C(=O)OCCN(C)Cc2ccccc2)[C@H]1c1cccc([N+](=O)[O-])c1`, the AC50 reads like this: under setting [1], 7.08 µM [falling, partial curve]; under setting [2], 3.16 µM [falling, partial curve].

Consider `COc1ccc2nc(NC(=O)C3CCCN3S(=O)(=O)c3ccc(C)cc3)sc2c1` (stereo not drawn), for which, under setting [2], the AC50 was 15.8 µM [rising, single point].

For `O=C(O)/C=C\C(=O)Nc1ccc(OC(F)F)cc1`, the AC50 under setting [1] is 0.0178 µM [rising, full curve, poor fit].

For the molecule `COc1ccc([N+](=O)[O-])cc1NC(=O)Nc1ccccc1`, the AC50 is, setting by setting: under setting [1], 14.1 µM [rising, partial curve]; under setting [2], 15.8 µM [rising, partial curve].

Regarding `CN(Cc1ccccc1)C(=O)c1cc(-c2ccc(Br)cc2)on1`, the half-maximal activity concentration (AC50) under setting [1] was 12.6 µM [rising, single point] and the AC50 under setting [2] is 22.4 µM [rising, single point].

In the case of `Cc1cccc(OCC(O)CN2CCN(CCN3C(=O)c4cccc5cccc(c45)C3=O)CC2)c1C` (stereo not drawn), the AC50 by setting is: under setting [1], 22.4 µM [falling, single point]; under setting [2], 3.55 µM [falling, partial curve].
